# Results as given in PubChem BioAssay AID248 (DTP/NCI, 2004).
# The list is a part of this screen's results and no random one: it is rich in T/C values a quarter to a half above the control, in often repeated tests (any T/C) and in doses without a T/C. Further doses and runs are listed elsewhere. T/C gives the treated animals as a percentage of the vehicle group. Some doses have a count of surviving animals in place of a T/C: the source files T/C as zero there, which appears to mark a toxic dose or a test without result, not a measured value. Some survivor counts are full or nearly so, which does not show that the dose was tolerated: survival well below the control is almost never listed, so the zero probably covers shortened survival too. Survivors were counted at the toxicity check, usually on the fifth day, unless a day is given; later deaths do not show. Schedules are NCI's codes, read here as Q, the interval in days (D) or hours (H), X, the number of doses. Some schedules carry Z or #; the key to these is not given. Where survival is the endpoint, the PubChem record calls one and a half times the control and up active, and a quarter to a half above the control has no call in these data; cut-offs in other NCI protocols can differ.
# System: L1210 leukemia ip in BDF1 mice, survival T/C
# Assay: NCI In Vivo Anticancer Drug Screen. Data for tumor model L1210 Leukemia (intraperitoneal) in B6D2F1 (BDF1) mice
# Conditions: T/C endpoint: mean survival time, higher T/C = longer survival
# [1] = dose: 200.0 mg/kg/injection, schedule: Q01DX001 (ip), vehicle: saline
# [2] = dose: 400.0 mg/kg/injection, schedule: Q01DX001 (ip), vehicle: saline
# [3] = dose: 400.0 mg/kg/injection, schedule: Q01DX009 (ip), vehicle: saline with Tween-80
# [4] = dose: 400.0 mg/kg/injection, schedule: Q04DX003 (ip), vehicle: Klucel (hydroxypropylcellulose) (HPC)
# [5] = dose: 200.0 mg/kg/injection, schedule: Q04DX003 (sc), vehicle: olive oil, sesame oil, peanut oil
# [6] = dose: 200.0 mg/kg/injection, schedule: Q01DX009 (ip), vehicle: Klucel (hydroxypropylcellulose) (HPC)
# [7] = dose: 200.0 mg/kg/injection, schedule: Q04DX002 (ip), vehicle: saline with Tween-80
# [8] = dose: 400.0 mg/kg/injection, schedule: Q04DX002 (ip), vehicle: saline with Tween-80
# [9] = dose: 100.0 mg/kg/injection, schedule: Q01DX005 (ip), vehicle: saline
compound,measurement,setting,value
C=CC[Si](Cl)(Cl)Cl,survivor count,[1],0 of 4
same,survivor count,[2],0 of 4
CC(C)(C)NC1CCCC1Cl (stereo not given),survivor count,[3],0 of 6
OC1C(OCc2ccccc2)OC(COCc2ccccc2)C(OC2OC(COCc3ccccc3)C(OCc3ccccc3)C(OCc3ccccc3)C2OCc2ccccc2)C1OCc1ccccc1 (stereo not given),survivor count,"dose: 100.0 mg/kg/injection, schedule: Q01DX001 (ip), vehicle: other",6 of 6
same,survivor count,"dose: 100.0 mg/kg/injection, schedule: Q01DX009 (ip), vehicle: alcohol",6 of 6
same,survivor count,"dose: 200.0 mg/kg/injection, schedule: Q01DX001 (ip), vehicle: other",6 of 6
same,survivor count,"dose: 400.0 mg/kg/injection, schedule: Q01DX001 (ip), vehicle: other",4 of 6
O=[N+]([O-])C=C([SH2+])[SH2+].O=[N+]([O-])C=C([SH2+])[SH2+].[Ni+2].c1ccc(C[P+](c2ccccc2)(c2ccccc2)c2ccccc2)cc1,survivor count,"dose: 300.0 mg/kg/injection, schedule: Q04DX003 (ip), vehicle: saline",6 of 6
COc1ccc(C[As+](Cc2ccccc2)(Cc2ccc(OC)cc2)Cc2ccc(OC)cc2)cc1,survivor count,"dose: 40.0 mg/kg/injection, schedule: Q01DX001 (ip), vehicle: saline",4 of 6
same,survivor count,"dose: 80.0 mg/kg/injection, schedule: Q01DX001 (ip), vehicle: saline",0 of 6
CCCCCCCCCCCCSC(=O)CCC(=O)O,survivor count,[4],1 of 6
FC(F)(F)C(Cl)(c1ccc(Cl)cc1)c1ccc(Cl)cc1,T/C,[5],127 % of control
O=c1oc2c(CN3CCCC3)c(O)ccc2c2c1CCCC2,survivor count,"dose: 400.0 mg/kg/injection, schedule: Q01DX001 (ip), vehicle: carboxymethylcellulose (CMC)",0 of 4
N#CC12C(=O)C3C4C=CC(C4)C3C(=O)C1(C#N)C1C=CC2C1 (stereo not given),survivor count,"dose: 400.0 mg/kg/injection, schedule: Q04DX003 (ip), vehicle: saline with Tween-80",0 of 3
O=C(O)C(=O)CBr,survivor count,"dose: 100.0 mg/kg/injection, schedule: Q04DX003 (ip), vehicle: saline",0 of 6
same,survivor count,"dose: 200.0 mg/kg/injection, schedule: Q04DX003 (ip), vehicle: saline",0 of 6
same,survivor count,"dose: 400.0 mg/kg/injection, schedule: Q04DX003 (ip), vehicle: saline",0 of 6
c1ccc2c(c1)ccc1[nH]c3ccc4ccccc4c3c12,survivor count,"dose: 50.0 mg/kg/injection, schedule: Q01DX009 (ip), vehicle: Klucel (hydroxypropylcellulose) (HPC)",4 of 6
same,survivor count,"dose: 100.0 mg/kg/injection, schedule: Q04DX003 (ip), vehicle: Klucel (hydroxypropylcellulose) (HPC)",1 of 6
same,survivor count,"dose: 200.0 mg/kg/injection, schedule: Q04DX003 (ip), vehicle: Klucel (hydroxypropylcellulose) (HPC)",3 of 6
same,survivor count,[4],3 of 6
CCOC(=O)C1CC(Cl)c2c(ccc3cc(OC)ccc23)N1 (stereo not given),survivor count,"dose: 100.0 mg/kg/injection, schedule: Q01DX001 (ip), vehicle: carboxymethylcellulose (CMC)",2 of 6
Oc1ccc(C2=CSC3=NCCN23)cc1,survivor count,"dose: 100.0 mg/kg/injection, schedule: Q01DX001 (ip), vehicle: saline",2 of 4
same,survivor count,[1],0 of 4
same,survivor count,[2],0 of 4
CC1(CCC(=O)/C=C/c2ccccc2)CCC/C(=C/c2ccccc2)C1=O (stereo not given),survivor count,"dose: 100.0 mg/kg/injection, schedule: Q01DX009 (ip), vehicle: Klucel (hydroxypropylcellulose) (HPC)",6 of 6
same,survivor count,[6],6 of 6
same,survivor count,"dose: 400.0 mg/kg/injection, schedule: Q01DX009 (ip), vehicle: Klucel (hydroxypropylcellulose) (HPC)",6 of 6
[N-]=[N+]=NC1=C(Cl)C(=O)c2ccccc2C1=O,survivor count,"dose: 100.0 mg/kg/injection, schedule: Q04DX002 (ip), vehicle: saline with Tween-80",0 of 3
same,survivor count,[7],0 of 3
same,survivor count,[8],0 of 3
[Br][Sb]([Br])([c]1ccccc1)([c]1ccccc1)[c]1ccccc1,survivor count,[6],2 of 3
same,survivor count,"dose: 400.0 mg/kg/injection, schedule: Q04DX002 (ip), vehicle: Klucel (hydroxypropylcellulose) (HPC)",3 of 3
CC(C)CCCC(C)C1CCC2C3CC(O)C4=CCCCC4(C)C3CCC12C (stereo not given),survivor count,"dose: 75.0 mg/kg/injection, schedule: Q01DX001 (ip), vehicle: other",6 of 6
same,survivor count,"dose: 150.0 mg/kg/injection, schedule: Q01DX001 (ip), vehicle: other",6 of 6
same,survivor count,"dose: 300.0 mg/kg/injection, schedule: Q01DX001 (ip), vehicle: other",5 of 6
O=C1NC(=O)C2CC(Br)C(Br)CC12 (stereo not given),survivor count,"dose: 20.0 mg/kg/injection, schedule: Q04DX003 (ip), vehicle: Klucel (hydroxypropylcellulose) (HPC)",5 of 6
same,survivor count,"dose: 40.0 mg/kg/injection, schedule: Q04DX003 (ip), vehicle: Klucel (hydroxypropylcellulose) (HPC)",0 of 6
COc1cc2cc(-c3cc(OC)c(OC)c(OC)c3)c3c(c2cc1OC)CNC3=O,survivor count,"dose: 400.0 mg/kg/injection, schedule: Q01DX009 (ip), vehicle: saline",5 of 6
NC(N)=NN=C(C1CC1)C1CC1,survivor count,"dose: 480.0 mg/kg/injection, schedule: Q01DX Z (ip), vehicle: carboxymethylcellulose (CMC)",6 of 6
same,survivor count,"dose: 960.0 mg/kg/injection, schedule: Q01DX Z (ip), vehicle: carboxymethylcellulose (CMC)",0 of 6
CCCC1(c2ccccc2)C(C#N)C(=O)NC(=O)C1C#N (stereo not given),survivor count,[2],0 of 4
CC(C)C1SC(=S)NC1=O (stereo not given),survivor count,[2],1 of 6
Clc1nnc(Cl)s1,survivor count,"dose: 100.0 mg/kg/injection, schedule: Q01DX009 (ip), vehicle: saline with Tween-80",3 of 6
same,survivor count,"dose: 200.0 mg/kg/injection, schedule: Q01DX009 (ip), vehicle: saline with Tween-80",0 of 6
same,survivor count,[3],0 of 6
C=C1CC(C)(c2ccccn2)OC1=O (stereo not given),survivor count,"dose: 50.0 mg/kg/injection, schedule: Q01DX001 (ip), vehicle: Klucel (hydroxypropylcellulose) (HPC)",3 of 3
same,T/C,"dose: 200.0 mg/kg/injection, schedule: Q01DX001 (ip), vehicle: Klucel (hydroxypropylcellulose) (HPC)",128 % of control
CN(C)C(=S)NNC(=O)c1ccc(Cl)cc1,survivor count,"dose: 100.0 mg/kg/injection, schedule: Q01DX001 (ip), vehicle: saline with Tween-80",0 of 6
same,survivor count,"dose: 200.0 mg/kg/injection, schedule: Q01DX001 (ip), vehicle: saline with Tween-80",0 of 6
same,survivor count,"dose: 400.0 mg/kg/injection, schedule: Q01DX001 (ip), vehicle: saline with Tween-80",0 of 6
Nc1ncnc2c1c(C1=NCCN1)cn2C1OC(CO)C(O)C1O (stereo not given),T/C,"dose: 25.0 mg/kg/injection, schedule: Q01DX009 (ip), vehicle: saline",144 % of control
same,T/C,[9],125 % of control
same,survivor count,[9],6 of 6
same,T/C,"dose: 100.0 mg/kg/injection, schedule: Q01DX009 (ip), vehicle: saline",146 % of control
same,survivor count,"dose: 200.0 mg/kg/injection, schedule: Q01DX005 (ip), vehicle: saline",3 of 6
C=C1CC2(OC1=O)C(=O)N(C)c1ccc(I)cc12 (stereo not given),survivor count,[7],2 of 3
same,survivor count,[8],1 of 3
Oc1cccc2cccnc12,survivor count,"dose: 200.0 mg/kg/injection, schedule: Q01DX001 (ip), vehicle: carboxymethylcellulose (CMC)",2 of 4
C/C(=N/N(C)C)c1cccs1,T/C,"dose: 25.0 mg/kg/injection, schedule: Q04DX003 (sc), vehicle: olive oil, sesame oil, peanut oil",135 % of control
same,T/C,"dose: 50.0 mg/kg/injection, schedule: Q04DX003 (sc), vehicle: olive oil, sesame oil, peanut oil",142 % of control
same,survivor count,"dose: 75.0 mg/kg/injection, schedule: Q04DX003 (sc), vehicle: olive oil, sesame oil, peanut oil",6 of 6
same,survivor count,"dose: 100.0 mg/kg/injection, schedule: Q04DX003 (sc), vehicle: olive oil, sesame oil, peanut oil",6 of 6
same,survivor count,[5],0 of 6
same,survivor count,"dose: 400.0 mg/kg/injection, schedule: Q04DX003 (sc), vehicle: olive oil, sesame oil, peanut oil",0 of 6
